# Reference: PubChem BioAssay AID1259289 (Sanger Institute, 2017)
# Assay: 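Kinase-wide silencing tested with three anchor drugs to reveal synergistic lethal pairs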 (primary screen)
# Cell system: human LS513 colorectal cancer cells
# Reagent: siRNA pool against human genes
# Treatment: anchor drug BYL719 at 1 µM, cetuximab at 5 µg/ml or trametinib at 10 nM, or DMSO vehicle alone; exposure time not given
# Detection: 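Survival versus non-targeting pool for each arm averaged over replicates, robust z-score in the arm with DMSO only, and synergy scores for BYL719, cetuximab or trametinib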
# Scale: robust z-score, siRNA alone (DMSO): higher = more viable cells; strongly negative means essential; viability with DMSO vs control: higher = more viable cells; synergy score with BYL719: higher = stronger combined killing with BYL719; synergy score with cetuximab: higher = stronger combined killing with cetuximab; synergy score with trametinib: higher = stronger combined killing with trametinib
# Call rule: 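a gene counts as active if its DMSO-only robust z-score falls under -3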
# Calls: active = essential (knock-down alone); inactive = not essential
# Here is one part, drawn at random, of 794 reagents. Over the whole deposit, 16 (2%) are marked active. 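Active marks cell loss from silencing alone; drug synergy shows only in the synergy scores, not the calls.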 No viability above 1 is reported: the scale is capped. Not stated in the record: the amount of reagent, the time to read-out.
Target gene,"robust z-score, siRNA alone (DMSO)",viability with DMSO vs control (fraction of control),synergy score with BYL719,synergy score with cetuximab,synergy score with trametinib,call
MST1R (macrophage stimulating 1 receptor),0.561,1,0.0656,-0.0512,-0.0171,inactive
MAPK15 (mitogen-activated protein kinase 15),0.561,1,0.0549,0.0998,0.0302,inactive
LRRK2 (leucine rich repeat kinase 2),0.561,1,-0.0651,-0.0968,0.0277,inactive
MAP2K6 (mitogen-activated protein kinase kinase 6),0.561,1,0.101,-0.0197,-0.0593,inactive
"MOS (MOS proto-oncogene, serine/threonine kinase)",0.352,0.97,0.0613,0.0234,0.0651,inactive
ADK (adenosine kinase),0.561,1,-0.134,-0.0968,0.0566,inactive
WHR1 (winged helix repair factor 1),0.561,1,0.0198,-0.0968,0.0314,inactive
TJP2 (tight junction protein 2),0.561,1,-0.0298,0.0994,0.0417,inactive
RIOK3 (RIO kinase 3),0.561,1,-0.0138,0.049,0.0585,inactive
COMMD3 (COMM domain containing 3),0.561,1,0.00833,0.0966,0.0149,inactive
CDK10 (cyclin dependent kinase 10),0.561,1,-0.134,-0.0968,0.0534,inactive
PIK3C2B,0.561,1,-0.0466,-0.0336,-0.0123,inactive
ETNK2 (ethanolamine kinase 2),-1.66,0.685,-0.108,-0.0789,-0.0842,inactive
NLK (nemo like kinase),-0.25,0.885,0.105,0.173,0.0504,inactive
DLG4 (discs large MAGUK scaffold protein 4),0.561,1,-0.13,-0.0968,0.0739,inactive
HIPK3 (homeodomain interacting protein kinase 3),-0.232,0.887,-0.039,-0.0761,0.0573,inactive
FLT1 (fms related receptor tyrosine kinase 1),0.561,1,-0.0741,-0.0968,-0.0138,inactive
CDKN2D (cyclin dependent kinase inhibitor 2D),-2,0.636,0.00929,-0.0252,0.0256,inactive
AKT1 (AKT serine/threonine kinase 1),0.561,1,0.064,0.0409,0.0539,inactive
CDK3 (cyclin dependent kinase 3),-0.309,0.877,-0.241,-0.0565,0.00211,inactive
PKN1 (protein kinase N1),0.561,1,-0.134,-0.0968,0.0438,inactive
CDK12 (cyclin dependent kinase 12),0.561,1,-0.0659,-0.063,-0.0527,inactive
HIPK4 (homeodomain interacting protein kinase 4),0.561,1,-0.134,-0.0968,-0.00415,inactive
PRKCI (protein kinase C iota),0.561,1,0.0254,-0.051,0.0147,inactive
NEK6 (NIMA related kinase 6),0.561,1,-0.134,-0.0968,-0.121,inactive
"BRAF (B-Raf proto-oncogene, serine/threonine kinase)",-0.205,0.891,0.0296,0.0464,0.0565,inactive
SRGAP3 (SLIT-ROBO Rho GTPase activating protein 3),0.561,1,-0.129,-0.0615,-0.0162,inactive
ROR1 (ROR family WNT receptor 1),0.561,1,0.0229,0.00369,0.0251,inactive
SNRK (SNF related kinase),-0.695,0.822,0.0279,-0.0991,-0.0206,inactive
TRIB1 (tribbles pseudokinase 1),0.561,1,0.0774,-0.0417,0.089,inactive
MAP4K5 (mitogen-activated protein kinase kinase kinase kinase 5),0.139,0.94,0.0583,0.142,0.039,inactive
DYRK4 (dual specificity tyrosine phosphorylation regulated kinase 4),0.561,1,0.0691,-0.0455,0.0108,inactive
DLG3 (discs large MAGUK scaffold protein 3),0.117,0.937,0.171,-0.0833,-0.00289,inactive
PDGFRB (platelet derived growth factor receptor beta),-1.76,0.67,0.0855,0.0168,-0.0309,inactive

An excerpt from the list above, for reference:
Target gene,"robust z-score, siRNA alone (DMSO)",viability with DMSO vs control (fraction of control),synergy score with BYL719,synergy score with cetuximab,synergy score with trametinib,call
NEK6 (NIMA related kinase 6),0.561,1,-0.134,-0.0968,-0.121,inactive
"BRAF (B-Raf proto-oncogene, serine/threonine kinase)",-0.205,0.891,0.0296,0.0464,0.0565,inactive
SRGAP3 (SLIT-ROBO Rho GTPase activating protein 3),0.561,1,-0.129,-0.0615,-0.0162,inactive
ROR1 (ROR family WNT receptor 1),0.561,1,0.0229,0.00369,0.0251,inactive
SNRK (SNF related kinase),-0.695,0.822,0.0279,-0.0991,-0.0206,inactive
